PubChem BioAssay AID1347423 (Functional Genomics Laboratory (NCATS/FGL), 2020)
Screen size: about 52,000 sequences; about 210 (0.4%) were called active.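 Rule for the calls: active = gene whose silencing raises cell survival under the drug, median off-target-corrected z-score across its silencing RNAs 2 or more; inactive = the rest.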 This is one part of the list.

Assay: Resistance to Poly (ADP-Ribose) Polymerase inhibitor: Gene Identification via Genome-wide siRNA Screen
Details: mouse BRCA2 R2336H ES cells, olaparib, CellTiter-Glo viability; hits give high values
Summary of the method: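 Mouse BRCA2 R2336H ES cells were reverse-transfected with siRNA (20 nM final), treated at 48 h with 500 nM olaparib, and read by CellTiter-Glo after 72 h. Scores: MAD-based z per siRNA, median per gene, seed off-target correction.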

Sequence | z-score
GCGUAGCUGUAGUGAACCATT against Erh | inactive: -1.83
GGAUUAUCAUGGUUUGAUCTT against Elp4 | inactive: 0.0219
GGAUUUCCUUUUUAAAUCCTT against Zfp42 | inactive: 0.0338
GGCCAAAAUGUUUGUUUGGTT against E030011O05Rik | inactive: -0.59
CCGUCUACAUAAAUUGCCCTT against Lrfn1 | inactive: 0.653
GCCAAUAGGUGAUUUUCUCTT against Vil1 | inactive: 1.11
CGUAUGGAGUCCAUUACUATT against Frmd4b | inactive: 0.141
CCUAAGCUUAUCUCAUAUUTT against 4930449I24Rik | inactive: -1.1
GGUGCGAGAUGCAUACAUCTT against Cct6b | inactive: -1.5
GGAAAAGACAGUCUCUGAATT against D4Bwg1540e | inactive: 0.89
GAGGCCUUCCUUUUCUAUATT against Foxd2 | inactive: -0.841
CCAUAUCCGUAGGUAUAUCTT against Htr2a | inactive: 1.02
CGGUCUGUUCAUAUCUUACTT against BC027373 | inactive: 0.464
GUGGAAAUGUACUUCUCUGTT against Olfr257 | inactive: -2.36
CCAGUUUGCACAAGUUUUCTT against Fyco1 | inactive: 0.605
GCUACAUGAUGUUUGGCAATT against Crsp9 | inactive: -0.33
GGAUCCCUUGAAAUACCAATT against Lrpap1 | inactive: -0.432
CCUAUAGUCUCUGUCAUUUTT against Siat7e | inactive: 0.164
GGAACGACAAUAAAGCUUATT against Ninj1 | inactive: 1.05
GGUUCCAGAGAAACAAAAGTT against Cox7a2 | inactive: 0.629
GGAAGGCAUUGAAGCUGAATT against 1700052N19Rik | inactive: 0.98
CCUGAUGCAACACAGGUCCTT against A630026F21Rik | inactive: 0.669
GGAAAACAUGUCACAUAAATT against Cd47 | inactive: -1.89
GGAGAGAUUAGCUCACAUGTT against Slc9a6 | inactive: -0.0667
GGAAAUCCUUUAUAUGUUGTT against Cyp2c70 | inactive: 0.247
CCCGAAGUACCAAAAAGUUTT against Usp21 | inactive: -0.411
GGACAAGCUGGAAUUAAACTT against LOC230872 | inactive: 0.189

Sequence | z-score
GGAGUUGUUGUGCUUUUAATT against C630002M10Rik | inactive: -0.722
CCAUGAUUCUUCGCACUGUTT against Olfr67 | inactive: 1.91
GGAGGAGACCUUGAUUGAUTT against Cyp46a1 | inactive: 1.18
GGAUUAUGCAUAACCAUGATT against Pik3r1 | inactive: 0.76
GGACAUGCUAUAAUGUAUUTT against 9130423L19Rik | inactive: -0.232
CCGUAAACAACCUUAAGUUTT against Hagh | inactive: -0.0815
GGCUGUGUAUUACUGUGCCTT against Vpreb1 | inactive: 0.264
CCGUGCACAACAUUGCCUATT against Qtrt1 | inactive: -0.504
GGUGAUCACUAACAUGACATT against Smpdl3a | inactive: 1.83
GGCCAUUGAUCAAGACAAGTT against Glyat | inactive: -0.633
CGACAACAUUUUCCUGUCATT against Serpinc1 | inactive: -1.78
CCAUAAAUCAUGAACUGGUTT against Sesn3 | inactive: -0.16
GGUGUACGAACUUAGCCGGTT against Irf7 | inactive: 2
GGCUAUUGCUGACCUCAGATT against Lrdd | inactive: -2.76
CGUCCUAGGAAUCUACUUUTT against Itgad | inactive: -0.183
CGUGCUACAGAUGCGUCAUTT against Exoc8 | inactive: -0.382
GGUUCGUUUUUUGUUGGAATT against 1110014L17Rik | inactive: -0.542
GGAAGACUGUAGGAUUGAGTT against 425O18-1 | inactive: 0.331
GGGUGAGAAAAUUCACGAGTT against Tubg2 | inactive: 1.42
GGAAGUUUCUCUGAGAGCUTT against Krt2-10 | inactive: 0.888
AGGUCAAUAAAGAGUGUGATT against 2200001I15Rik | inactive: 0.991
GCUUAUAACAGUUGAUGAGTT against Ndufs4 | inactive: 1.79
GGAUACAAAUCCAGAUUCUTT against Pex26 | inactive: 1.88
GGAUCUUGAUAGACUGAUGTT against Pem | inactive: 1.51
GCAACCCUUCUGAACAGGATT against D10Ertd802e | inactive: 1.19
GGAUUUGGAGCAGGUGGAUTT against Avpr1b | inactive: -1.69
UCAGGUGAAGAUAAGGACATT against Olfr198 | inactive: 0.104

Reformatted as a markdown table: entries from further up.

| Sequence | z-score |
| --- | --- |
| GGUUCCAGAGAAACAAAAGTT against Cox7a2 | inactive: 0.629 |
| GGAAGGCAUUGAAGCUGAATT against 1700052N19Rik | inactive: 0.98 |
| CCUGAUGCAACACAGGUCCTT against A630026F21Rik | inactive: 0.669 |
| GGAAAACAUGUCACAUAAATT against Cd47 | inactive: -1.89 |
| GGAAAUCCUUUAUAUGUUGTT against Cyp2c70 | inactive: 0.247 |
| CCCGAAGUACCAAAAAGUUTT against Usp21 | inactive: -0.411 |
| GGACAAGCUGGAAUUAAACTT against LOC230872 | inactive: 0.189 |
| GGAGUUGUUGUGCUUUUAATT against C630002M10Rik | inactive: -0.722 |
| GGAGGAGACCUUGAUUGAUTT against Cyp46a1 | inactive: 1.18 |
| GGAUUAUGCAUAACCAUGATT against Pik3r1 | inactive: 0.76 |
| GGACAUGCUAUAAUGUAUUTT against 9130423L19Rik | inactive: -0.232 |
| CCGUAAACAACCUUAAGUUTT against Hagh | inactive: -0.0815 |
| GGCUGUGUAUUACUGUGCCTT against Vpreb1 | inactive: 0.264 |
| CCGUGCACAACAUUGCCUATT against Qtrt1 | inactive: -0.504 |
| GGUGAUCACUAACAUGACATT against Smpdl3a | inactive: 1.83 |
| GGCCAUUGAUCAAGACAAGTT against Glyat | inactive: -0.633 |
| CGACAACAUUUUCCUGUCATT against Serpinc1 | inactive: -1.78 |
| CCAUAAAUCAUGAACUGGUTT against Sesn3 | inactive: -0.16 |
| GGUGUACGAACUUAGCCGGTT against Irf7 | inactive: 2 |
| GGCUAUUGCUGACCUCAGATT against Lrdd | inactive: -2.76 |
| CGUCCUAGGAAUCUACUUUTT against Itgad | inactive: -0.183 |
| CGUGCUACAGAUGCGUCAUTT against Exoc8 | inactive: -0.382 |
| GGUUCGUUUUUUGUUGGAATT against 1110014L17Rik | inactive: -0.542 |
| GGAAGACUGUAGGAUUGAGTT against 425O18-1 | inactive: 0.331 |
| GGGUGAGAAAAUUCACGAGTT against Tubg2 | inactive: 1.42 |
| GGAAGUUUCUCUGAGAGCUTT against Krt2-10 | inactive: 0.888 |
| AGGUCAAUAAAGAGUGUGATT against 2200001I15Rik | inactive: 0.991 |
| GCUUAUAACAGUUGAUGAGTT against Ndufs4 | inactive: 1.79 |
| GGAUCUUGAUAGACUGAUGTT against Pem | inactive: 1.51 |
| GCAACCCUUCUGAACAGGATT against D10Ertd802e | inactive: 1.19 |
| GGAUUUGGAGCAGGUGGAUTT against Avpr1b | inactive: -1.69 |
| UCAGGUGAAGAUAAGGACATT against Olfr198 | inactive: 0.104 |

Further results.

Sequence | z-score
GGACAAAAUUAAGGAUUGCTT against Foxg1 | inactive: 0.713
CCAGACAUGAAACUUGUAUTT against Mms19l | inactive: 0.442
CCUUGUGCCGAGAUUUUCCTT against 6430401A05Rik | inactive: 0.445
GCAUCUGUGCCGAUUAAAATT against Asb15 | inactive: 1.53
GCUCUUAAGUACUUGGUCATT against Ddx47 | inactive: -2.88
GGGAUUGAAUCUUCUUCGCTT against Btbd5 | inactive: 0.893
GGAAAUUACCCAAUAUGUATT against Birc1b | inactive: -0.0372
GCACGAAUUAUGGCACCGUTT against P2rx7 | inactive: 0.685
GCUUAAUCCUUAGUCAGCATT against F2rl2 | inactive: -0.725
GGGAUCUUUGAGGAGUCUUTT against Snx12 | inactive: -1.37
GGUGUUCUUCCUCUAUGAGTT against Chst2 | inactive: -0.397
GGGAUGCGUUUGACUGGUGTT against Zfp455 | inactive: 0.621
CCUCUUUAUCGGUGUUAUUTT against Scn11a | inactive: 1.39
GCCUGAGUAACUUUGAACATT against Rangnrf | inactive: -0.276
GGUCAAAGGAAAAAGAAAATT against Stag1 | inactive: 0.127
GGUCAUGAAAAAUGACAGCTT against Klra2 | inactive: 0.939
GCUGGUUAGACCCUUCCAATT against Hnf4g | inactive: -0.785
GGUGGUCCACGAAUUCAUUTT against Plekhc1 | inactive: -0.223
CCACAAUCUGGCUCCUUCUTT against Ceacam1 | inactive: 0.119
GGCGUACAGUCACUAUGAGTT against Crym | inactive: -2.81
GGCUUUGAACAGGAAAGACTT against D11Moh35 | inactive: -1.74
GGGAUUAGUUCUAAGACAATT against Dio3 | inactive: 0.056
GGUUCAACAGAAGAGGUGGTT against Exosc2 | inactive: 0.665
GCUCAACACCUAUUCCGACTT against Matn3 | inactive: 2.08
GGUCAAAACAAAAGGAGGGTT against Ncf4 | inactive: 0.776
GGGCUUUCUACGAACCAAGTT against Ovol1 | inactive: -2.72
GCGAGUACCCUAAAAACAUTT against Mmp14 | inactive: 0.391

Sequence | z-score
GGUGGACUUGUUUAAAAAGTT against Senp5 | inactive: -0.0901
GCAUAGUUUUUGACAAAACTT against Hrmt1l6 | inactive: 0.847
GGGACACAUUUAAAAAAACTT against B930096L08Rik | inactive: 0.0862
CCUGACACUUUCCUUACUUTT against D2Bwg0891e | inactive: 1.07
GGCAUAUGCAGGUAUCUGUTT against Defb5 | inactive: 0.333
GGCUAUUUUGCUGUACCUCTT against Gbgt1 | inactive: -2.01
GGAACACUGGAAGAAAGAUTT against 6430596G11Rik | inactive: -0.558
CCUGAAUUCAGUCUGUUUUTT against Depdc1b | inactive: 0.405
GGUUAUUGGGAUUGAGUGUTT against Hrmt1l2 | inactive: -0.145
CGUAAACACUCCUAACUUUTT against Hif1a | inactive: 0.724
GCAGUAUAACUAUCUGAAATT against 1110029E03Rik | inactive: -0.0481
GGAAAGGAAACCAAGUAAATT against Phf14 | inactive: -0.396
GCUCCGAAGUGUGAAGAUUTT against Kcnn1 | inactive: -1.57
CCAGAUGUCGGCAGAUAACTT against Pold4 | inactive: -0.0711
GGGUAUCAUUGUGAUCUCUTT against Slc10a3 | inactive: -0.477
CCUCUGAACCUGAAAAAGATT against Gm1968 | inactive: -0.441
GGACAAGCAAGGUCAAUCATT against Trar1 | inactive: 2.08
GGUUGAUAGGCCAAAUUGUTT against Tuba1 | inactive: 0.249
GGAUCUGAAAAAAUUAAGCTT against Stat2 | inactive: 0.532
GGCCAUAGAAAUAAUGCUATT against D1Ucla4 | inactive: 0.779
GGUAAUGUUCUCCUUUGAATT against Dok1 | inactive: 0.00302
GGCUAUACCUUUGACUAUGTT against Csnk1g1 | inactive: 1.54
GGCCGGAAACUAAUCAGACTT against Mcm10 | inactive: -0.104
CCUGUCGUCUCUCACUAGATT against Zfp9 | inactive: -0.868
